Test system: C57BLKS db/db mice
Details: 6 months treatment, untreated 298±35, p<0.01, n=8 in each group
From the text: The C57BLKS db/db mice is a rodent model of type II diabetes mellitus. A LepR^db (db) mutation on chromosome 4 (G→T point mutation) has been identified in the leptin receptor gene. This mutation generates a new donor splice site, leading to prematurely termination of the intracellular domain of leptin receptor and lack of leptin signal transduction. C57BLKS db/db strain is more susceptible to the development of diabetic nephropathy than the C57BL/6J db/db strain. Animals are characterized by obesity, insulin resistance, diabetes and diabetic nephropathy (DN). […]
Inhibitor was given for 6 months, while the control diabetic mice were given vehicle alone (n=8 per group). […] The urine samples were collected monthly and albumin/creatinine ratio was determined by enzyme linked immunosorbent assays (Exocell Inc, PA, USA). Glomerular filtration rate (GFR) was determined using FITC-inulin clearance based on plasma elimination rate following single bolus intravenous injection.
Cyclooxygenase-1 (COX-1) is also abundantly expressed in the kidney, however its role in health and disease remains poorly defined. […] Glomerular filtration rate was also determined using FITC-inulin clearance.

For `COc1ccc(-n2nc(C(F)(F)F)cc2-c2ccc(Cl)cc2)cc1` [SC8560], the “Glomerular filtration rate (GFR), FITC-inulin clearance” value was 462±46 ul/min/mouse.

Source: patent US20050143356A1, “Selective inhibition of cyclooxygenase 1 in the treatment of diabetic nephropathy” (Vanderbilt University, priority 2003, published 2005)
